Assay: Steroid concentrations in charcoal-stripped follicular fluid by LC-MS/MS
Set-up: species or system human

SMILES	concentration in charcoal-stripped follicular fluid (sFF) [nM]
C[C@]12CCC(=O)C=C1CC[C@@H]1[C@@H]2CC[C@]2(C)C(=O)CC[C@@H]12 [androstenedione]	0.365
C[C@]12CC[C@@H]3c4ccc(O)cc4CC[C@H]3[C@@H]1CC[C@@H]2O [estradiol]	54
CC(=O)[C@H]1CC[C@H]2[C@@H]3CCC4=CC(=O)CC[C@]4(C)[C@H]3CC[C@]12C [progesterone]	262
C[C@]12CC[C@H]3[C@@H](CCC4=CC(=O)CC[C@@]43C)[C@@H]1CC[C@@H]2O [testosterone]	0.32

From paper PMC11413451 (Frontiers in Cell and Developmental Biology, 2024)
